# Earlier results, collected in patent US12540166B2, “BNIP3 peptides for treatment of reperfusion injury” (Bimyo GmbH, priority 2019, dated 2026).
# For at least one compound, name, drawing or mass did not settle the structure.
# System: cancer therapy cardiotoxicity
# Conditions: in vivo; cited from earlier work
structure (smiles),measurement,value
CCOc1nc2cccc(C(=O)O)c2n1Cc1ccc(-c2ccccc2-c2nnn[nH]2)cc1 [candesartan],prevention of cardiotoxicity / cardiomyopathy in cancer patients,significant benefit
